Chains of the proteins cited; added tags and fusions are not shown.
UniProt Q5TEA3: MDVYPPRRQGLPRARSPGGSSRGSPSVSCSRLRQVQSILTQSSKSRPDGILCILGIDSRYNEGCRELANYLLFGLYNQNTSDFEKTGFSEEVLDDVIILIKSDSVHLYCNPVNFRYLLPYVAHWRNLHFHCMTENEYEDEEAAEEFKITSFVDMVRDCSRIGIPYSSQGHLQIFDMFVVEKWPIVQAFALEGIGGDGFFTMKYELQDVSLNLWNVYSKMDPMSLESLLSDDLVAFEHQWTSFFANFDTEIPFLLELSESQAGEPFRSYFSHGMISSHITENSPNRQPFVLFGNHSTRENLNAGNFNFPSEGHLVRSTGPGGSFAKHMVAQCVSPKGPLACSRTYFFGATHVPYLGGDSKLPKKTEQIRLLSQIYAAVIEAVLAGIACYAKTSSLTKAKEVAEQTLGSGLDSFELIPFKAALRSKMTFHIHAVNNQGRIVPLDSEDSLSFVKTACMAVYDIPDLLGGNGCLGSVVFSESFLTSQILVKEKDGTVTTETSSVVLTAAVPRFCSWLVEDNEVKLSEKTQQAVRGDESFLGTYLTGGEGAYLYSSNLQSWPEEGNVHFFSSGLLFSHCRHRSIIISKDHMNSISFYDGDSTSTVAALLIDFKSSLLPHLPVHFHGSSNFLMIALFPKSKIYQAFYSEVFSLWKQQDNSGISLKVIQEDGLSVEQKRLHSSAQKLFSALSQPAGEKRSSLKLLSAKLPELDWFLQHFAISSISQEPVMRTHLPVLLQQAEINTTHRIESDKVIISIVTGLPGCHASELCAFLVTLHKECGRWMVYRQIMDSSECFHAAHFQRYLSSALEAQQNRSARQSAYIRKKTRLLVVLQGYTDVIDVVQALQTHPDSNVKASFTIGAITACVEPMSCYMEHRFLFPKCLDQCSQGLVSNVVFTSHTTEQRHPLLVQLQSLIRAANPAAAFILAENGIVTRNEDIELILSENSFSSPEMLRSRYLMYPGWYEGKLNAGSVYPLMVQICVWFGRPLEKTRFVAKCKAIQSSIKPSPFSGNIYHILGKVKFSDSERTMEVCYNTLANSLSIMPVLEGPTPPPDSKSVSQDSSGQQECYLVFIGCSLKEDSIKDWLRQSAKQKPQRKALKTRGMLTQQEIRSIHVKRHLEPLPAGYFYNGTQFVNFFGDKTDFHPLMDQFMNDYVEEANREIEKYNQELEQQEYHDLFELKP
UniProt P36405: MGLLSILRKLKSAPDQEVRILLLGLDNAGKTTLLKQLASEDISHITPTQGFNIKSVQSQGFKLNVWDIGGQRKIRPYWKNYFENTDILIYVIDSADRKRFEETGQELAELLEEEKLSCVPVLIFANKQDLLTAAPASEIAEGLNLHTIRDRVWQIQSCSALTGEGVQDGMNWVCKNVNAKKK
UniProt Q03135: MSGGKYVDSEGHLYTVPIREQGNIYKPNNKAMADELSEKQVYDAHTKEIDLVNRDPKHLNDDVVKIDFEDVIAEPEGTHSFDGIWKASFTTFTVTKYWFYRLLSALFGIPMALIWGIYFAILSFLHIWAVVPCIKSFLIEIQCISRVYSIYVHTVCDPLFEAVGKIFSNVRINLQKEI
UniProt Q13561: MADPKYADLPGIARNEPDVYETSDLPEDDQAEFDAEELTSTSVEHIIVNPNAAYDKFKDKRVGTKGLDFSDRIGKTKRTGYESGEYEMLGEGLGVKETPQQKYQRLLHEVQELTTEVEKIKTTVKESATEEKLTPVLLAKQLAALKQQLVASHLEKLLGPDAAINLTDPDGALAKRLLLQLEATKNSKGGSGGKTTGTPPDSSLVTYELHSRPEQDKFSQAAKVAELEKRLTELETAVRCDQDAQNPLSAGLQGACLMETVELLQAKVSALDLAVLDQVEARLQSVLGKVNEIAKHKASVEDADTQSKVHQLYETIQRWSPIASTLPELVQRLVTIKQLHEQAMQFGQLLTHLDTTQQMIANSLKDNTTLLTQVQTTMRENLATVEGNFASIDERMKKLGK
UniProt Q8TE73: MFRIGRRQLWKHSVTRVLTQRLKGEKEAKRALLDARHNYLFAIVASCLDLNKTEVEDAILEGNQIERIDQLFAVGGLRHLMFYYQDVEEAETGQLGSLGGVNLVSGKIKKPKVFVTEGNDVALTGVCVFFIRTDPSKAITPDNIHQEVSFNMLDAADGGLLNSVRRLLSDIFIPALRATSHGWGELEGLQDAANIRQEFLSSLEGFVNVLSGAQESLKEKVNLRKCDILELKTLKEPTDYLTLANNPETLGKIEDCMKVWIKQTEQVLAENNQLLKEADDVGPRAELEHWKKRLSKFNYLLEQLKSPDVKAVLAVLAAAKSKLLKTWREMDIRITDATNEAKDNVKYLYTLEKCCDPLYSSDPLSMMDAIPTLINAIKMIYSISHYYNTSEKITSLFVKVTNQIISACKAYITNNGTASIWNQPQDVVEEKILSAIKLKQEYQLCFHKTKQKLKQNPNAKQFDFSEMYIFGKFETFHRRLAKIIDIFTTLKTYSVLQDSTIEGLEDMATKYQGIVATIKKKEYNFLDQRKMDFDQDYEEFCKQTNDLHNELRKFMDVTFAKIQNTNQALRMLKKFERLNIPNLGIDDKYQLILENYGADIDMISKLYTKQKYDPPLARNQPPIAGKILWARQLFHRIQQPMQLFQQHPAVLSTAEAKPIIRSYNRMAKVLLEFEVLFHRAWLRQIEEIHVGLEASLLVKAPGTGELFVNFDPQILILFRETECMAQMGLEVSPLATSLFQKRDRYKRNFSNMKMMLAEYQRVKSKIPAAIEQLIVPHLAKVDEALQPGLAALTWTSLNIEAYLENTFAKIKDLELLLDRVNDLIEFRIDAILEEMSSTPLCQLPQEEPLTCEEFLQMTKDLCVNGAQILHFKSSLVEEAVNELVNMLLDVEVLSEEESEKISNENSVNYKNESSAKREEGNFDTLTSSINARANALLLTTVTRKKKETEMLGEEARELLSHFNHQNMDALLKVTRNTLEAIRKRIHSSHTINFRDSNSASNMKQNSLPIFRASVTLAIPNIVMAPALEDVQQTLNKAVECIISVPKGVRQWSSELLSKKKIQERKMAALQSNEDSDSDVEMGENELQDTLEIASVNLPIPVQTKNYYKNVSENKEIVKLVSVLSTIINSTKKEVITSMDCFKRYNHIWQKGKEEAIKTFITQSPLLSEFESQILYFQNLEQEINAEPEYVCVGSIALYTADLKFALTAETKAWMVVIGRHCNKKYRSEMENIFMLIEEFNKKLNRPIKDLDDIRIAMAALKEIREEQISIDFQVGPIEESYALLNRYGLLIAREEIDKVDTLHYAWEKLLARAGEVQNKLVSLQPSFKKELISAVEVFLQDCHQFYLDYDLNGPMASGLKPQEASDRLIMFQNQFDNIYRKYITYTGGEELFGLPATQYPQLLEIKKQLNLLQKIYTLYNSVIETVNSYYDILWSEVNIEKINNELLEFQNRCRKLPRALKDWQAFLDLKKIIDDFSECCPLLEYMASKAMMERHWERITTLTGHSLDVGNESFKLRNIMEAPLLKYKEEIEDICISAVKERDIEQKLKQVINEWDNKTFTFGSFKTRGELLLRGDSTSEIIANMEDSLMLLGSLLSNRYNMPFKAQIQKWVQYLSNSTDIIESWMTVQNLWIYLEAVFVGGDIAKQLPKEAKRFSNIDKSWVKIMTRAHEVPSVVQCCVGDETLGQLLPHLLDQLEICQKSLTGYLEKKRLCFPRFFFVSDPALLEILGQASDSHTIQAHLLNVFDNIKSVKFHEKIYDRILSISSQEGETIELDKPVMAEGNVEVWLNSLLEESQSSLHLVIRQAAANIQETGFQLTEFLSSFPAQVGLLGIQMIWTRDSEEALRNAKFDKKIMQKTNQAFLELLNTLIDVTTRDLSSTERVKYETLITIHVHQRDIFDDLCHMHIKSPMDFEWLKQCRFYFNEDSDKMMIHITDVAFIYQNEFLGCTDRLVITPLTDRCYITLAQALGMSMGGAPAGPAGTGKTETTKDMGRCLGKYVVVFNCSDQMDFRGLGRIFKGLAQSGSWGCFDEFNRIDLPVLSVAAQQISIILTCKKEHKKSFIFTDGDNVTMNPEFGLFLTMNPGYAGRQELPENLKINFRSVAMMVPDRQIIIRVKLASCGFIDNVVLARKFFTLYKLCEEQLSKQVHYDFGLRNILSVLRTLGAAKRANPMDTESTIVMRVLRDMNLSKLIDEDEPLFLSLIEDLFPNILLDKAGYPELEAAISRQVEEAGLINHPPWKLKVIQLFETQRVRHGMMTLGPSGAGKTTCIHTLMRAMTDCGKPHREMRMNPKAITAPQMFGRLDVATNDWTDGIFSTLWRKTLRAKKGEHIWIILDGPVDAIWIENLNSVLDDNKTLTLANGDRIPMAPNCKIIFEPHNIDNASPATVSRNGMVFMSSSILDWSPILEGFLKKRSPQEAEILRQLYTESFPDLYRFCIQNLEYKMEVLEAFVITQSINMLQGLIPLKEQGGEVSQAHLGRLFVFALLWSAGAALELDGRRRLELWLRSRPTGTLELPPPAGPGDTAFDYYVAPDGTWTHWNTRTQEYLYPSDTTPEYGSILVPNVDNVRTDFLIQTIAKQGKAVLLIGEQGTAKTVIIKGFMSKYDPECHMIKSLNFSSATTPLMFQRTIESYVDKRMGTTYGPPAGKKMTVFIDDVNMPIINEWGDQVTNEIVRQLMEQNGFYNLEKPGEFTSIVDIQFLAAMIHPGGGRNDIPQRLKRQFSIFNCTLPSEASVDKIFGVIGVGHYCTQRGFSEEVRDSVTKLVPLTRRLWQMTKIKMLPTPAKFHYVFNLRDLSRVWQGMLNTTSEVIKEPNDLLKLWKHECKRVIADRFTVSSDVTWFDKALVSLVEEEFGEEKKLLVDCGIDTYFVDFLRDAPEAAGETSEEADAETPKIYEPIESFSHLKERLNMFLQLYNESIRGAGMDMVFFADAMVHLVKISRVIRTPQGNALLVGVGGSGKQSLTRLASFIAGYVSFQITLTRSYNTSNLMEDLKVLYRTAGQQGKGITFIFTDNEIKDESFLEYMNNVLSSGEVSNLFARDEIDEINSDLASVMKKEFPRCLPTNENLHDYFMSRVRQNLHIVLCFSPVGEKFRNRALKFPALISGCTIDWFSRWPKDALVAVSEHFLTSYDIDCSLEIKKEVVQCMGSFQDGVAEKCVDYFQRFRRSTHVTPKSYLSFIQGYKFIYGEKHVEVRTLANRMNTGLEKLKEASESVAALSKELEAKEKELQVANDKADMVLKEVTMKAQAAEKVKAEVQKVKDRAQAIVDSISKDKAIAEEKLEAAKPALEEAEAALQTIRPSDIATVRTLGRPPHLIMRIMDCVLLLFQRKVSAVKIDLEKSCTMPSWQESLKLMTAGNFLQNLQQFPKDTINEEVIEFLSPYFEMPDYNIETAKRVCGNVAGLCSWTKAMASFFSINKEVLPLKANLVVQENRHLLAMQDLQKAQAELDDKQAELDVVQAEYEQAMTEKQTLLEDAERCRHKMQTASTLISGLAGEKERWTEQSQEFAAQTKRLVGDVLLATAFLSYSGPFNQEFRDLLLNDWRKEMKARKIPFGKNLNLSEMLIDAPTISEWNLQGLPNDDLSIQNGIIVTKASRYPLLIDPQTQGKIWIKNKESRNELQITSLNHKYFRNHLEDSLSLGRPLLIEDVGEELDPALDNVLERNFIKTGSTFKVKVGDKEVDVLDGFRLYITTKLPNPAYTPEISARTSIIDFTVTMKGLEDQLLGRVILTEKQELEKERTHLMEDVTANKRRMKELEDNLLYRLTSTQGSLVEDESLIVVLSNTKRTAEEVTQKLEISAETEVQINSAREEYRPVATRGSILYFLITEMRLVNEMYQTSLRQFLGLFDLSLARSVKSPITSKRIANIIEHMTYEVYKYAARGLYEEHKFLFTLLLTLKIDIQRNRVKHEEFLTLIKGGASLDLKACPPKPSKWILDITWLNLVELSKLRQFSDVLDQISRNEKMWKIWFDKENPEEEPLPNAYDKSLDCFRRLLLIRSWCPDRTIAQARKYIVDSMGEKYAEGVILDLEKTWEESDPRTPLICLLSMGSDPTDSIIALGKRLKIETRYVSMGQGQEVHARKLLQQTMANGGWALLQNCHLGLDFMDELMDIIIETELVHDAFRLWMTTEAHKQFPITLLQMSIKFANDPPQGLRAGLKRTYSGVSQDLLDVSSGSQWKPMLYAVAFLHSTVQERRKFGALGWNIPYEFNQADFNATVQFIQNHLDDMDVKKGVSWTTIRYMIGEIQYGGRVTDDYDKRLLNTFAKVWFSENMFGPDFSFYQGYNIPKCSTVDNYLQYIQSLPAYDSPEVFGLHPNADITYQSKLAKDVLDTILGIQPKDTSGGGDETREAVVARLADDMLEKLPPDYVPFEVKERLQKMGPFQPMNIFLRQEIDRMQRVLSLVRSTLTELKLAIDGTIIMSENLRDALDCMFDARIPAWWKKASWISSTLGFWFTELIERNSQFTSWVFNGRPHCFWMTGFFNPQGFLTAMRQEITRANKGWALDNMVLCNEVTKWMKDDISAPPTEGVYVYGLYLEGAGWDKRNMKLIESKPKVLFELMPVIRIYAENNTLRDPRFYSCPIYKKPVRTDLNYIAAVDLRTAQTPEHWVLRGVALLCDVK

No constants are given. Whether binding was seen depends on the method and setting. Binding seen in cells or lysates may run through a third protein. A yes stands for co-enrichment or nearness to the bait. Other partners may have been found.
Each substance was assayed against DNAAF9 (human Shulin), endogenous in human airway epithelial cells (human (endogenous in HAECs)) (UniProt Q5TEA3) (assay: affinity purification with mass spectrometry).
In the case of “ARL3, endogenous in human airway epithelial cells (from UniProt P36405 1-182)”, the binding is reported as “binds”. For CAV1 (from UniProt Q03135 1-178), the binding was “binds”. For DCTN2 (from UniProt Q13561 1-401), the binding was “binds”. DNAH9 (from UniProt Q9NYC9 1-4486) was tested, and the binding was “binds”. DNAH5 (from UniProt Q8TE73 1-4624) was tested, and the binding was “binds”. For DYNC1H1 (from UniProt Q14204 1-4646), the binding was “binds”.
